{
  "source": "patent US9238007B2",
  "about": "“Method for the production of a medicament containing tadalafil” (RATIOPHARM GMBH, priority 2007, dated 2016)",
  "key": {"[1]": {"assay": "Dissolution tests of tadalafil in polymer melts", "format": "physicochemical", "conditions": "0.5 g tadalafil + 4.5 g polymer (10 wt. %), 200° C. for two hours, cooled to room temperature"}, "[2]": {"assay": "Dissolution tests of tadalafil in liquid polymers", "format": "physicochemical"}},
  "note": "At least one compound was matched to its structure with a doubt left.",
  "data": [
    {"smiles": "CN1CC(=O)N2[C@H](c3ccc4c(c3)OCO4)c3[nH]c4ccccc4c3C[C@@H]2C1=O", "note": "[Tadalafil, (6R,12aR)-6-(1,3-benzodioxol-5-yl)-2-methyl-1,2,3,4,6,7,12,12a-octahydropyrazino [2,1 :6,1]pyrido[3,4-b]indole-1,4-dione]", "values": [
      {"measurement": "dissolution of tadalafil in polymer melt", "setting": "[1]", "result": "dissolved best in PEG 4000, PEG 6000, PEG 8000, PEG 20000 and Kollidon® VA64"},
      {"measurement": "dissolution of tadalafil in liquid excipient", "setting": "[2]; 0.5 g tadalafil + 4.5 g liquid excipient (10 wt. %), 200° C. for two hours", "result": "dissolved best in Tagat®, PEG 400 and Cremophor® EL"},
      {"measurement": "dissolution of tadalafil in liquid excipient", "setting": "[2]; 0.5 g tadalafil + 4.5 g liquid excipient, heating to 80° C. for two hours", "result": "did not produce any dissolution"},
      {"measurement": "dissolution of tadalafil in liquid excipient", "setting": "[2]; 0.5 g tadalafil + 4.5 g liquid excipient, ultrasonic for two hours", "result": "remained undissolved"}
    ]}
  ]
}
